Test results as given in the supplement of paper PMC12067093, “Discovery and optimisation of a covalent ligand for TRIM25 and its application to targeted protein ubiquitination” (Chemical Science, 2025).
The list shows a part of the results.

Amino acid sequences for entries named in this document (tags omitted). A change or cut given only in a name is not applied to a line headed by its entry.
UniProt O00567: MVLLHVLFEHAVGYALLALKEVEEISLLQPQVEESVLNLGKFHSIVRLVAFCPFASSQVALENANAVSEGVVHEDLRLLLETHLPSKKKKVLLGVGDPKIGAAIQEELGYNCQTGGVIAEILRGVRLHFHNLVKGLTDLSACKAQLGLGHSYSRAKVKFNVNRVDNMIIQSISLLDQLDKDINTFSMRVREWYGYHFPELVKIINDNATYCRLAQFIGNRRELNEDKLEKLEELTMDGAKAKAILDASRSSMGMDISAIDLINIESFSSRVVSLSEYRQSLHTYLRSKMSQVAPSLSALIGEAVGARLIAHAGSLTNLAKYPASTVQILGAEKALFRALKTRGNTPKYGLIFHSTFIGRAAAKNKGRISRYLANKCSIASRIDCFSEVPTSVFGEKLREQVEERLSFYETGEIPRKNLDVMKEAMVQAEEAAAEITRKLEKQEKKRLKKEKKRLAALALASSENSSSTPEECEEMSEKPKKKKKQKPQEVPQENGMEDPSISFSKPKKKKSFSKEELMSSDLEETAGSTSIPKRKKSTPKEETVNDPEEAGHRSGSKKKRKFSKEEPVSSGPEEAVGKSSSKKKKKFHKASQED
UniProt Q96L73: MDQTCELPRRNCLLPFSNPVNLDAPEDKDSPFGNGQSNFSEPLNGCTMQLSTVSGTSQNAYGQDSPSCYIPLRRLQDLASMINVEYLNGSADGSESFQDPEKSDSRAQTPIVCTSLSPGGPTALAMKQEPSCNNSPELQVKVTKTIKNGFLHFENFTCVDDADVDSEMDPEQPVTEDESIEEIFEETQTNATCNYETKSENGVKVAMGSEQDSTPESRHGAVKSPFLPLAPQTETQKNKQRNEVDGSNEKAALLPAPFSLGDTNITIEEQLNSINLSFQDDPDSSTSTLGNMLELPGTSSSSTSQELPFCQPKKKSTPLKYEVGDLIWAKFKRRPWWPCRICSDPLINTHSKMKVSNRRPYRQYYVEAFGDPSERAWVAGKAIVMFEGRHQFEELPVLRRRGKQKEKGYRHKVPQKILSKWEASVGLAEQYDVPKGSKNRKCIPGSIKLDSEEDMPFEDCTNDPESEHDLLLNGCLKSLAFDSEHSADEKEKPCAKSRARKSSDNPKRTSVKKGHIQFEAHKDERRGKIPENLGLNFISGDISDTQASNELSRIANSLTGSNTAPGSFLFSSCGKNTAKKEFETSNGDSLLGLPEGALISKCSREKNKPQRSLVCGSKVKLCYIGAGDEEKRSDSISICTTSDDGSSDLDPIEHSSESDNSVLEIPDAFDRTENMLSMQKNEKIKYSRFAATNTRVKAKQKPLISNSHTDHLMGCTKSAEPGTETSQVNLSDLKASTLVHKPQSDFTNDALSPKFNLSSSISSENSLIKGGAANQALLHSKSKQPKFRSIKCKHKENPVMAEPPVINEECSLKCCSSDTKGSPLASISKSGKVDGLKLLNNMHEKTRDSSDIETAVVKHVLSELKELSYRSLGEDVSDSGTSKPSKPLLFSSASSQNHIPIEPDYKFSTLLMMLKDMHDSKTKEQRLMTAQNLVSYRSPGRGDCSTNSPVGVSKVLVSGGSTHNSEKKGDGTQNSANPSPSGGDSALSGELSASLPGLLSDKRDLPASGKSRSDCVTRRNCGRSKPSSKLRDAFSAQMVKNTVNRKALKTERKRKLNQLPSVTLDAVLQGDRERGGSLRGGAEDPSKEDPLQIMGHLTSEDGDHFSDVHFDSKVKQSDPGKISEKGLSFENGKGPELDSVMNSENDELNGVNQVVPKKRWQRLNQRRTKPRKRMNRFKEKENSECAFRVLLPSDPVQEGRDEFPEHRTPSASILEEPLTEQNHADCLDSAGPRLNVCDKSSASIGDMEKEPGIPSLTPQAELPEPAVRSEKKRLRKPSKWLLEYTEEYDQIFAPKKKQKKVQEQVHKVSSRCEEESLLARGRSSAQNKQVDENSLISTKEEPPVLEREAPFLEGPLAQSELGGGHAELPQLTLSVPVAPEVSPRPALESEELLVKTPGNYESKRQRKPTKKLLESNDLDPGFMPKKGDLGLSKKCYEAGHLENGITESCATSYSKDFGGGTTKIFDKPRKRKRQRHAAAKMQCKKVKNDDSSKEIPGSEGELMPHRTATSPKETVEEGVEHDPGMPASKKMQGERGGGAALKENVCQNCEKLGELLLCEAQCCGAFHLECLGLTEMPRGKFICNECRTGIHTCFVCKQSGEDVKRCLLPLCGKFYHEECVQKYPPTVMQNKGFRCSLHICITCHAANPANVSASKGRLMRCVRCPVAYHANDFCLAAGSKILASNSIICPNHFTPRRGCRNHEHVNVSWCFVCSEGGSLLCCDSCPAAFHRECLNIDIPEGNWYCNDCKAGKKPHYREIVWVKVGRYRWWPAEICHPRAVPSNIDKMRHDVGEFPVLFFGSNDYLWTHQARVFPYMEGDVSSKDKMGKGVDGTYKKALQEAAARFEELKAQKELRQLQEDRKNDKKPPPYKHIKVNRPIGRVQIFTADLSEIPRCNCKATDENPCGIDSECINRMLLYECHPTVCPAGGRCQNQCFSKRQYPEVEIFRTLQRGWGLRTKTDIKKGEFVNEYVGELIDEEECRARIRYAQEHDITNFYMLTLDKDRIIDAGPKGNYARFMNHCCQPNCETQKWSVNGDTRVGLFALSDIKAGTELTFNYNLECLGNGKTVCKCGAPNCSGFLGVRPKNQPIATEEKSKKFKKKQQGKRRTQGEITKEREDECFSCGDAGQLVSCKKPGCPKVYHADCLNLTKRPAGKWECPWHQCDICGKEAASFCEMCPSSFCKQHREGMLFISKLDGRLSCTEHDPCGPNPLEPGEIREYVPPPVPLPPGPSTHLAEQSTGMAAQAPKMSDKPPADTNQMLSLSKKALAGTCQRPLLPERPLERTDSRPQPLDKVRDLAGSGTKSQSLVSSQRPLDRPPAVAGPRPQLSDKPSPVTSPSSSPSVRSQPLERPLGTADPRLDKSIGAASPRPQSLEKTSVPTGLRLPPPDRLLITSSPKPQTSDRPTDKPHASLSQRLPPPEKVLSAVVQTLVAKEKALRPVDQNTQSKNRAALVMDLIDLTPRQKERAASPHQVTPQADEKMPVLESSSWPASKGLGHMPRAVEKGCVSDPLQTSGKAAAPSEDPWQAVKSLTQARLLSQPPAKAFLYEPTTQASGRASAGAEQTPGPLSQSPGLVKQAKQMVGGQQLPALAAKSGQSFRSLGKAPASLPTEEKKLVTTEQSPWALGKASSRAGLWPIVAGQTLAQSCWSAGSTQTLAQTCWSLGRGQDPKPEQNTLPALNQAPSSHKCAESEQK
UniProt Q9UMY1: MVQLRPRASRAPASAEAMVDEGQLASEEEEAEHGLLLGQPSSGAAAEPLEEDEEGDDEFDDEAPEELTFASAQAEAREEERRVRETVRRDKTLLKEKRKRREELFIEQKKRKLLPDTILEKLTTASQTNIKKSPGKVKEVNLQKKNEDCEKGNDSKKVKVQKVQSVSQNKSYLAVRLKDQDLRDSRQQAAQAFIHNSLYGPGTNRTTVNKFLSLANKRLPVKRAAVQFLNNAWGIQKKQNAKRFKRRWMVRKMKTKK
UniProt Q9UK39: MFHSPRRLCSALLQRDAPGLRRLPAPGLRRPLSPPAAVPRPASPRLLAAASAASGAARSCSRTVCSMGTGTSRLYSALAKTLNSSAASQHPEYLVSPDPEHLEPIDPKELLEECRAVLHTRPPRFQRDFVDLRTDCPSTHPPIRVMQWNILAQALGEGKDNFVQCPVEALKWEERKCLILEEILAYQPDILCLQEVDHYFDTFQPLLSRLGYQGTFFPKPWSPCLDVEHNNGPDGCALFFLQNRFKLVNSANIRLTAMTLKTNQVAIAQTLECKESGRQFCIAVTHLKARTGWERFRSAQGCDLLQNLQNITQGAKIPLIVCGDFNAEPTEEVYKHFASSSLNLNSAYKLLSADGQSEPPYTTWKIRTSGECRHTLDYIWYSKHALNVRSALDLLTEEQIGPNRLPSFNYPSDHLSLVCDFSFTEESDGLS
UniProt Q5TFE4: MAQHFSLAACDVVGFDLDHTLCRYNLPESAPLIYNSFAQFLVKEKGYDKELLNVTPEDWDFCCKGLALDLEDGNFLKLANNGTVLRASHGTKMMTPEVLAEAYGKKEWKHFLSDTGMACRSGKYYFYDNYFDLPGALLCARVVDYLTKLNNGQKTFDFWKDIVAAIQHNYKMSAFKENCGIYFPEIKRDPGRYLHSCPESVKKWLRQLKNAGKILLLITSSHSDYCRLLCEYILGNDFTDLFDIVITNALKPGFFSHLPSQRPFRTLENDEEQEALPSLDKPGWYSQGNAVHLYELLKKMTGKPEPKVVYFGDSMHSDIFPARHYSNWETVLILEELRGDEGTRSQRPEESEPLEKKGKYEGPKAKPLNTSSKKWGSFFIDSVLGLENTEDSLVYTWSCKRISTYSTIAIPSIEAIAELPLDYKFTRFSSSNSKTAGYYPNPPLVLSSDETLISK
UniProt Q969T7: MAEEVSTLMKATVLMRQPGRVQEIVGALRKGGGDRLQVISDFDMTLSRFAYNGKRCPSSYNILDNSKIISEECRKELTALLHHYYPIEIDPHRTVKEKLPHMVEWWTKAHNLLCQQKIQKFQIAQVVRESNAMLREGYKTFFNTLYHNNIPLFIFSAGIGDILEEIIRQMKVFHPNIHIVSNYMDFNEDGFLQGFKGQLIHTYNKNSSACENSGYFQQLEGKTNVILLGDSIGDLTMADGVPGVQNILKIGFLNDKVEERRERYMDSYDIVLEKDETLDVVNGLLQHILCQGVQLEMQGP
UniProt P15531, whole entry: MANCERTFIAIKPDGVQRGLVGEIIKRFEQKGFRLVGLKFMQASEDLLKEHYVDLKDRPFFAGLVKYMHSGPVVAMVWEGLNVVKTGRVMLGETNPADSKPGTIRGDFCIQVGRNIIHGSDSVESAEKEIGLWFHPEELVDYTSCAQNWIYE
UniProt O43847: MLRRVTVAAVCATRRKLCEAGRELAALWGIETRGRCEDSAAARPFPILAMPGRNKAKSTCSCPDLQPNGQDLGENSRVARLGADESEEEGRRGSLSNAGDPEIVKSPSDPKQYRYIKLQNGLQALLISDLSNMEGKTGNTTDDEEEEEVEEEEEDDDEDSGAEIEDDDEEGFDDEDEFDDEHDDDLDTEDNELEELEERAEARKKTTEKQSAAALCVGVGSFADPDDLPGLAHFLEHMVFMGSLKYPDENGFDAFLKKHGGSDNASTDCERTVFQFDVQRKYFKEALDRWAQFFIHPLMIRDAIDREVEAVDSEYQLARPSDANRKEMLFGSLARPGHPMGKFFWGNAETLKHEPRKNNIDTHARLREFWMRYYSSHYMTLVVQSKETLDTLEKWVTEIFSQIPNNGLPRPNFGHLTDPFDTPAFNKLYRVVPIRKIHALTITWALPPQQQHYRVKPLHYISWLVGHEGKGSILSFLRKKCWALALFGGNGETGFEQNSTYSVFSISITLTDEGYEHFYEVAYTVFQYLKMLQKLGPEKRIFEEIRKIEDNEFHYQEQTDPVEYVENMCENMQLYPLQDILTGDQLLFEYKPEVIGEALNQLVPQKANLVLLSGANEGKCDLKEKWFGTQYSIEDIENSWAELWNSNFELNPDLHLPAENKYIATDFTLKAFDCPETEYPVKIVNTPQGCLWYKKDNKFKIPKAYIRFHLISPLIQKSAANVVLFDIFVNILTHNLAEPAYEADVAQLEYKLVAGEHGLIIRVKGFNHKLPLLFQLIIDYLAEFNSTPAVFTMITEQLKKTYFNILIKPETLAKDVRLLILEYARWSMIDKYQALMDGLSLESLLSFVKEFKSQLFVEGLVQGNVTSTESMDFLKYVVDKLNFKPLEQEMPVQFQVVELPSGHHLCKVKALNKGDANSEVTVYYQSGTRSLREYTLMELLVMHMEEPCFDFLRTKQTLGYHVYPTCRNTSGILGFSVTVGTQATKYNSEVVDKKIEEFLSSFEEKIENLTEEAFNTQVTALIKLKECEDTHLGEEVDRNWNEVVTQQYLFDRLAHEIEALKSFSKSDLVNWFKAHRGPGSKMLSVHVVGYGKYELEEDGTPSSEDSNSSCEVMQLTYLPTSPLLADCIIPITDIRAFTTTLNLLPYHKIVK
UniProt Q9NSY0: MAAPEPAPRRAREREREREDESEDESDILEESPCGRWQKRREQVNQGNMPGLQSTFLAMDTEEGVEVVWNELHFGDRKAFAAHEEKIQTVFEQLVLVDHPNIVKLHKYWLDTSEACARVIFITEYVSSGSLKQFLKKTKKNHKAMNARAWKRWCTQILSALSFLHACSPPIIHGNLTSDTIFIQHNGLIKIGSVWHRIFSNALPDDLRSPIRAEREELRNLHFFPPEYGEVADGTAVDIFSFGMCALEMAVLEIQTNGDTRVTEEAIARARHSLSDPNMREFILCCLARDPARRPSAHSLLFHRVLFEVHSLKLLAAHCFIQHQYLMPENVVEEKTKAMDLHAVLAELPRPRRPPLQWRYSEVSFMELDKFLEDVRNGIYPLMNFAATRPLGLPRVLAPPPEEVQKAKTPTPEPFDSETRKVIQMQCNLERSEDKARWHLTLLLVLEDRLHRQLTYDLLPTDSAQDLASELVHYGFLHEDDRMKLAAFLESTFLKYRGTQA

Compound: Cc1cc(ccc1-c1ccccc1)C(=O)N1CCCN(CC1)C(=O)CCl [compound 10]
Assay: probe-labelled cysteine peptide fold change vs DMSO (competition) (log2 fold change); higher = less target engagement (more negative = stronger competition)
Settings: THP-1, incubation time: 4 h
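Also: competitive profiling in live THP-1 cells: cysteine peptides tagged with an iodoacetamide desthiobiotin (IA-DTB) probe, intensity after compound treatment relative to DMSO-treated cells.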

Target	probe-labelled cysteine peptide fold change (10 µM)	probe-labelled cysteine peptide fold change (50 µM)
NT5C2_P49902_433_VTHDMDMCYGMMGSLFR (UniProt P49902)	0.071	-0.038
NOP56_O00567_384_IDCFSEVPTSVFGEK (UniProt O00567)	-0.0363	0.161
NOP56_O00567_112_IGAAIQEELGYNCQTGGVIAEILR (UniProt O00567)	-0.141	0.158
NOL6_Q9H6R4_665_CYDDLSR (UniProt Q9H6R4)	0.19	0.131
NRBP1_Q9UHY1_340_LLAAHCIVGHQHMIPENALEEITK (UniProt Q9UHY1)	0.105	0.0216
NSD1_Q96L73_1689_ILASNSIICPNHFTPR (UniProt Q96L73)	-0.104	-0.243
NTMT1_Q9BV86_68_TGTSCALDCGAGIGR (UniProt Q9BV86)	0.17	-0.00422
NPC1_O15118_42_RYNCEYSGPPKPLPK (UniProt O15118)	-0.0248	-0.0583
NNT_Q13423_936_EANSIIITPGYGLCAAK (UniProt Q13423)	0.0449	0.033
NOL7_Q9UMY1_149_KNEDCEK (UniProt Q9UMY1)	0.0489	-0.0639
NOTCH2_Q04721_870_CTIDIDECISK (UniProt Q04721)	-0.147	0.0219
NSD1_Q96L73_1185_ENSECAFR (UniProt Q96L73)	0.489	0.234
NOL11_Q9H8H0_578_ESTSCPVVQK (UniProt Q9H8H0)	-0.0261	0.11
NOCT_Q9UK39_136_TDCPSTHPPIR (UniProt Q9UK39)	-0.188	-0.285
NT5DC1_Q5TFE4_139_YYFYDNYFDLPGALLCAR (UniProt Q5TFE4)	1.21	1.46
NOTCH2_Q04721_1966_LAVEGMVAELINCQADVNAVDDHGK (UniProt Q04721)	0.391	0.564
NSF_P46459_599_SQLSCVVVDDIER (UniProt P46459)	-0.0463	0.242
NT5DC1_Q5TFE4_22_AQHFSLAACDVVGFDLDHTLCR (UniProt Q5TFE4)	0.194	0.593
NSD3_Q9BZ95_729_HFHLECLGLASLPDSK (UniProt Q9BZ95)	-0.00268	-0.32
NOP56_O00567_211_IINDNATYCR (UniProt O00567)	0.127	0.322

Target	probe-labelled cysteine peptide fold change (10 µM)	probe-labelled cysteine peptide fold change (50 µM)
NOL6_Q9H6R4_256_LHPCPPPDFFRPCR (UniProt Q9H6R4)	-0.126	-0.0602
NSMAF_Q92636_158_ASCLDK (UniProt Q92636)	0.182	0.0358
NOB1_Q9ULX3_147_GHSACEPENLEFSSFMFWR (UniProt Q9ULX3)	-0.0022	-0.15
NT5DC1_Q5TFE4_179_ENCGIYFPEIK (UniProt Q5TFE4)	-0.226	-0.0577
NT5C3B_Q969T7_73_IISEECR (UniProt Q969T7)	-0.00671	0.268
NMT1_P30419_294_VHLEGIFQAVYTAGVVLPKPVGTCR (UniProt P30419)	-0.159	0.162
NSD1_Q96L73_715_QKPLISNSHTDHLMGCTK (UniProt Q96L73)	-0.125	-0.494
NOCT_Q9UK39_322_IPLIVCGDFNAEPTEEVYK (UniProt Q9UK39)	0.0663	-0.129
NNT_Q13423_1073_TCDALQAK (UniProt Q13423)	-0.31	-0.0885
NOP58_Q9Y2X3_139_EMAAMCLGLAHSLSR (UniProt Q9Y2X3)	0.189	-0.0164
NPC1_O15118_1261_SCATEER (UniProt O15118)	-0.238	-0.609
NLN_Q9BYT8_451+458_YNHAACFGLQPGCLLPDGSR (UniProt Q9BYT8)	0.0908	-0.261
NOC4L_Q9BVI4_100_YHSCCNR (UniProt Q9BVI4)	0.067	0.037
NPEPL1_Q8NDH3_504_ASEDPLLNLVSPLGCEVDVEEGDLGR (UniProt Q8NDH3)	-0.334	0.172
NPEPL1_Q8NDH3_397_YHAAVLTNSAEWEAACVK (UniProt Q8NDH3)	-0.104	0.0602
NPLOC4_Q8TAT6_130_SRDPQLCR (UniProt Q8TAT6)	0.114	-0.0288
NME1_P15531_145_EIGLWFHPEELVDYTSCAQNWIYE (UniProt P15531)	-0.261	-0.0646
NRDC_O43847_1027_LKECEDTHLGEEVDRNWNEVVTQQYLFDR (UniProt O43847)	-0.22	-0.499
NRBP2_Q9NSY0_34_EREDESEDESDILEESPCGR (UniProt Q9NSY0)	-0.476	-0.713

A different layout for part of the listing above.
Target | probe-labelled cysteine peptide fold change (10 µM) | probe-labelled cysteine peptide fold change (50 µM)
NT5C3B_Q969T7_73_IISEECR (UniProt Q969T7) | -0.00671 | 0.268
NRDC_O43847_1027_LKECEDTHLGEEVDRNWNEVVTQQYLFDR (UniProt O43847) | -0.22 | -0.499
NRBP2_Q9NSY0_34_EREDESEDESDILEESPCGR (UniProt Q9NSY0) | -0.476 | -0.713
